# Test results from PubChem BioAssay AID2685 (National Center for Advancing Translational Sciences (NCATS), 2010).
# This is one part of the list. Further columns of the screen follow, without active or inactive calls. The list favours compounds with an active or inconclusive main result. Potencies come from curve fits of mixed quality, noted in brackets. Where a SMILES comes first, the peptide text is derived from it. The star is where a group is joined. Boc = CC(C)(C)OC(=O)*; Bn = c1ccc(C*)cc1; NHNH2 = NN*
# Assay: qHTS Assay for Lipid Storage Modulators in Drosophila S3 Cells;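 on cell number change: cells counted by Cell Tracker Red CMTPX staining in the red channel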
# Settings: BODIPY lipid droplet fluorescence, 18-24 h; for cell number change: measured here: cell count max response, cells fed with added oleic acid
# Outline: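 Drosophila S3 cells got compounds at several concentrations plus oleic acid (400 uM solution). Laser-scanning cytometry with 488 nm excitation read lipid droplets at 500-530 nm and cells at 575-640 nm. Percent activity was relative to 20 uM Triacsin C.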
# [1] = measured here: cell number channel AC50, cells fed with added oleic acid
# [2] = measured here: lipid fluorescence (Fed channel) AC50, cells fed with added oleic acid
SMILES,cell number change,AC50 [1],AC50 [2]
CCOC(=O)c1c(NC(=O)Nc2cccc(Cl)c2)sc(C)c1C,9.8%,"0.517 µM [rising, full curve]","0.13 µM [rising, full curve, poor fit]"
CS(=O)(=O)c1ccc(Cl)c(NC(=O)CSc2nnc(C3CC3)n2C2CC2)c1,-27.1%,–,"1.84 µM [falling, full curve, poor fit]"
CCCCNC(=S)N(C)/N=C/c1ccc(OCC(=O)Nc2c(C)cc(C)cc2C)c(OC)c1,4.75%,–,–
Cc1ccc(NC(=O)CCN2C(=O)c3ccccc3S2(=O)=O)cc1F,–,–,"1.46 µM [rising, partial curve]"
CC1CCCC(C(=O)O)N1C(=O)CCS (centres undefined),2.38%,–,"0.058 µM [rising, full curve, poor fit]"
CC(=O)c1cccc(-n2nnnc2SCC(=O)Nc2cccc(NC(=O)c3ccco3)c2)c1,-5.96%,–,"18.4 µM [falling, partial curve]"
S=C1NC(c2ccccc2)=CC(c2ccccc2)N1 (centres undefined),–,–,"0.58 µM [rising, single point]"
C/C(NC(=O)c1cccc(F)c1)=C1/C(=O)C[C@@H]2[C@H]1C2(C)C,–,"6.51 µM [rising, partial curve, poor fit]",–
Cc1noc(C)c1C(=O)N1CCCC(N2CCN(c3cccc(C(F)(F)F)c3)CC2)C1 (centres undefined),-13.9%,"0.116 µM [rising, full curve, poor fit]","0.58 µM [falling, single point]"
Cc1ccc2nc(N3C(=O)C(O)=C(C(=O)c4ccco4)C3c3cccs3)sc2c1 (centres undefined),10.1%,–,"0.13 µM [falling, full curve, poor fit]"
O=C(NCCc1ccccc1)c1cc(S(=O)(=O)N2CCOCC2)ccc1F,12.8%,–,–
COc1cccc(NC(=S)N(CCCN2CCCC(C)C2)Cc2cccs2)c1 (centres undefined),57.9%,–,"11.6 µM [rising, partial curve]"
Cc1ccccc1NC(=O)NC1(C(=O)N2CCC(C(N)=O)CC2)CCCCC1,15.3%,–,"6.51 µM [falling, partial curve, poor fit]"
CCOC(=O)N1CCN(C(=O)CSc2ccc(Cl)cc2)CC1,–,–,"5.17 µM [falling, single point]"
COc1cc(C(C(=O)NC2CCCC2)N(C(=O)c2snc(C(N)=O)c2N)C2CCCC2)cc(OC)c1OC (centres undefined),25.6%,–,–
CCOC(=O)c1c(C)nc2sc3c(=O)n(-c4ccc(C(C)=O)cc4)cnc3c2c1-c1ccc(Cl)cc1,-9.37%,–,"6.51 µM [falling, single point]"
O=C(CSc1nc2ccccc2c(=O)n1Cc1ccco1)c1ccccc1,-20.1%,–,–
O=C1CSC(c2ccc(Cl)c(Cl)c2)N1c1nccs1 (centres undefined),23%,–,"9.2 µM [rising, partial curve]"
O=C(O)CCc1nc2cc(Cl)ccc2n(Cc2ccccc2)c1=O,–,–,"2.06 µM [falling, partial curve, poor fit]"
CCOC(=O)c1ccc(-n2c(=O)[nH]c3ccccc3c2=O)cc1,69.8%,"29.1 µM [rising, single point]",–

SMILES,cell number change,AC50 [1],AC50 [2]
O=C(Nc1ccc([N+](=O)[O-])cc1)c1ccc(Cn2cc([N+](=O)[O-])cn2)cc1,-32.5%,"11.6 µM [falling, single point]","0.92 µM [falling, full curve]"
CCOc1ccc(Br)cc1S(=O)(=O)Nc1cccc(S(=O)(=O)N(C)C)c1,-51.7%,"11.6 µM [falling, partial curve]","7.31 µM [falling, partial curve]"
Cc1ccc(-c2[nH][nH]c(=O)c(=O)c2N=Nc2ccccc2)cc1,40.2%,"23.1 µM [rising, single point]","23.1 µM [rising, single point]"
O=C(O)C1CCN(C(=O)NC2CCCCC2)CC1,-4.13%,–,–
CC(=O)Nc1ccc(C(=S)NCCCO)cc1,–,–,"6.51 µM [falling, single point]"
CCOC(=O)c1sc(S(C)=O)c2c1CCc1conc1-2 (centres undefined),-58%,"6.51 µM [falling, partial curve]","6.51 µM [falling, partial curve]"
O=C(N/N=C/c1ccc([N+](=O)[O-])s1)c1cccnc1,-26.3%,–,"14.6 µM [falling, partial curve]"
CCOC(=O)CNC(=O)c1ccc(C)cc1,-10.2%,–,"20.6 µM [falling, partial curve]"
Cc1ccc2[nH]c3c(=O)n(CC(=O)Nc4ccccc4N4CCN(C)CC4)ncc3c2c1,-14.6%,"1.64 µM [rising, partial curve, poor fit]",–
O=C(N/N=C/c1c[nH]c2ccccc12)C1CC1c1ccccc1 (centres undefined),-26.3%,–,"16.4 µM [falling, single point]"
CC(C)CC(NC(=O)C(COCc1ccccc1)NC(=O)OC(C)(C)C)C(=O)NN (centres undefined) (Boc-Ser(Bn)-Leu-NHNH2; configuration not given here),-9.61%,"3.26 µM [falling, partial curve]","6.51 µM [falling, single point]"
CC(C)CCNC(=O)c1cc(-c2ccco2)nc2ccccc12,1.55%,"0.116 µM [rising, full curve]","0.13 µM [rising, full curve, poor fit]"
C=CCOc1ccc(CN(C)c2ccc(S(=O)(=O)N3CCN(C)CC3)cc2[N+](=O)[O-])cc1,6.69%,–,"14.6 µM [falling, single point]"
COc1ccc(S(=O)(=O)N2CCC(C(=O)NCc3ccncc3)CC2)cc1Cl,22.4%,–,"0.112 µM [falling, full curve, poor fit]"
O=C(CS(=O)CC(=O)N(c1cccc(F)c1)C(C(=O)NC1CCCCC1)c1ccco1)Nc1ccc(F)cc1 (centres undefined),25.4%,–,"13 µM [rising, partial curve, poor fit]"
CCC(c1nnnn1C(C)(C)CC)N1CCN(c2ccccc2F)CC1 (centres undefined),18.3%,"4.61 µM [falling, single point]",–
O=C(Cn1c(C(=O)NCc2ccco2)cc2sccc21)c1ccccc1,-85%,"5.17 µM [falling, partial curve]","1.84 µM [falling, full curve]"
O=c1[nH]c(Cn2nnc(-c3ccccc3)n2)nc2scc(-c3ccccc3)c12,-13.2%,–,–
Cc1cnc(NC(=O)CSc2nnc(Cc3ccccc3)o2)s1,51.3%,"20.6 µM [rising, single point]",–
NC(=O)c1ccsc1NC(=O)COC(=O)CCOc1ccccc1,-61.4%,"13 µM [falling, partial curve]","10.3 µM [falling, partial curve]"

SMILES,cell number change,AC50 [1],AC50 [2]
Brc1ccc2oc3c(N4CCOCC4)ncnc3c2c1,-8.3%,–,–
CCc1cccc(CC)c1NC(=O)c1cc(CN2C(=O)c3ccccc3C2=O)ccc1OC,6.2%,–,"0.0058 µM [rising, full curve, poor fit]"
CCOC(=O)[C@H]1[C@H]2COc3ccc(OC)cc3[C@@H]2N2C(=O)CN(Cc3ccc(F)cc3)C(=O)[C@@]12C,-5.78%,–,"0.651 µM [falling, single point]"
COc1ccc(-c2n[nH]c(=S)n2-c2ccc(C)cc2C)cc1,-0.365%,–,–
Cc1cc(=S)cc(C)n1CCCn1ccnc1,-11.1%,–,–
COc1ccc(-c2cc(C(=O)N3CCCCCC3)c3cc(C)ccc3n2)cc1,-19.6%,–,"20.6 µM [falling, partial curve]"
Cc1ccc(S(=O)(=O)N2CCOCC2)cc1C(=O)OCC(=O)Nc1ccc2[nH]c(=O)[nH]c2c1,0.5%,–,–
O=C(CNC(=O)c1ccc(Cl)cc1Cl)NCCCn1ccnc1,64.4%,"29.1 µM [rising, single point]","23.1 µM [rising, single point]"
N#Cc1ccsc1NC(=O)C1=COCCO1,5.07%,"3.66 µM [rising, single point]","3.66 µM [rising, single point]"
Cc1ccc2c(c1)C1CN(C)CCC1N2S(=O)(=O)c1cccc(F)c1 (centres undefined),–,–,"18.4 µM [falling, single point]"
CCCCS(=O)CC(CS(=O)CCCC)OC(=O)c1ccc(C)cc1 (centres undefined),10.5%,–,"1.84 µM [falling, partial curve]"
COC(=O)Cc1c(O)ccn(Cc2cccc3ccccc23)c1=O,-82.9%,"4.61 µM [falling, partial curve]","5.8 µM [falling, partial curve]"
Cc1cc(NC(=O)CSc2nnc(CNC(=O)c3ccc(C(C)(C)C)cc3)o2)no1,-34.7%,"29.1 µM [falling, single point]","1.16 µM [falling, partial curve, poor fit]"
Cc1cc(C)nc(-n2nc(C)cc2NC(=O)c2cccc(S(=O)(=O)N3CCOCC3)c2)n1,16.4%,–,"0.291 µM [rising, full curve, poor fit]"
COC(=O)CSc1nc(NCC(C)C)nc(N2CCOCC2)n1,14.2%,–,"29.1 µM [rising, single point]"
C=CCN1C(=O)/C(=C/c2ccc(OCC(=O)O)cc2)S/C1=N/c1nccs1,56.4%,"3.26 µM [rising, full curve]","6.51 µM [rising, partial curve, poor fit]"
CCC(=O)NNC(=O)CCC(=O)Nc1ccccc1,5.93%,–,–
COc1cc(OC)c(OC)cc1CN1CCN(Cc2cccn2C)CC1,-31.7%,"3.66 µM [falling, full curve]","0.206 µM [falling, full curve, poor fit]"

# Gathered by group: the entries above containing a nitro group on carbon (3)
SMILES,cell number change,AC50 [1],AC50 [2]
O=C(Nc1ccc([N+](=O)[O-])cc1)c1ccc(Cn2cc([N+](=O)[O-])cn2)cc1,-32.5%,"11.6 µM [falling, single point]","0.92 µM [falling, full curve]"
O=C(N/N=C/c1ccc([N+](=O)[O-])s1)c1cccnc1,-26.3%,–,"14.6 µM [falling, partial curve]"
C=CCOc1ccc(CN(C)c2ccc(S(=O)(=O)N3CCN(C)CC3)cc2[N+](=O)[O-])cc1,6.69%,–,"14.6 µM [falling, single point]"
